From PubChem BioAssay AID1487 (National Center for Advancing Translational Sciences (NCATS), 2009) come the findings set out here.

The nature of this experiment: qHTS Assay for Modulators of Lamin A Splicing. The conditions noted are these: HeLa LMNA splicing GFP/RFP minigene ratio, 48 h. The essentials:
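S3 HeLa stable clones carrying a lamin A-EGFP splicing minigene plus DsRed2 were seeded at 600 cells/well in Opti-MEM with 2% FBS, pin-dosed and incubated 48 h at 37°C. Acumen cytometry (488 nm) gave the GFP/RFP total-intensity ratio.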

The mark [1] stands for this setting: measured here: RFP viability control channel.
The mark [2] stands for this setting: measured here: GFP splicing reporter channel.

Several values for one entry are separate records, joined by “and”; a condition that tells them apart may be missing. Equal entries are not always repeated. This is one part of the list. Further columns of the screen follow, without active or inactive calls. The list favours compounds with an active or inconclusive main result. Words in brackets tell the shape of the fitted curve; partial curves, single points and poor fits give uncertain potencies.

Regarding `Cc1ccn2c(-c3csc(NCc4ccco4)n3)c(C)nc2c1`, the AC50 under setting [1] is 35.5 µM [rising, single point]. For `COc1ccc(Cl)cc1C(=O)Nc1c2c(nn1-c1ccc(Cl)cc1)CS(=O)(=O)C2`, under setting [2], the AC50 was 0.00355 µM [falling, full curve, poor fit]. As to `COc1ccc(-c2cc(=O)c3c(O)c(OC)c(OC)c(OC)c3o2)cc1OC`, the concentration at half-maximal activity (AC50) under setting [1] was 14.1 µM [rising, single point].

With `O=C(N/N=C/c1c[nH]c2ccccc12)c1[nH]c2ccc(Br)cc2c1-c1ccccc1`, the AC50 was 20 µM [falling, partial curve] under setting [2] and 22.4 µM [falling, single point] under setting [1].

Regarding `Cc1nn(Cc2ccc(Cl)c(Cl)c2)c(C)c1NC(=O)c1cc(-c2ccco2)on1`, under setting [1], the AC50 is 11.2 µM [rising, single point]. Regarding `COc1ccc(S(=O)(=O)NCCc2sc(-c3cccc(C)c3)nc2C)cc1`, the AC50 under setting [1] is 35.5 µM [falling, single point]. On the same count and under the same terms, next, `Cc1cc(C)c2c3c(sc2n1)C(c1cccc(F)c1)C(C#N)=C(N)O3` (configuration not stated): 17.8 µM [rising, single point]. The same measure, in the same setting: next, `CCc1ccc(-n2nc(C)c3c(C(=O)N4CCN(c5cccc(Cl)c5)CC4)cc(C)nc32)cc1`: 15.8 µM [rising, partial curve, poor fit].

For `Cc1ccc(S(=O)(=O)N2c3ccccc3OCC2c2ccccc2)cc1` (configuration not stated), under setting [1], the AC50 was 11.2 µM [rising, partial curve]. On the same count and under the same terms, under `CCOc1cc(C(=O)OCc2cc(=O)n3nc(C4CC4)sc3n2)cc(OCC)c1OCC` stands 0.00501 µM [falling, full curve, poor fit]. Consider `Cc1ccc2nc(SCC(=O)Nc3ccc4c(c3)CCC4)[nH]c2c1`, for which the AC50 under setting [2] was 11.2 µM [rising, single point] and the AC50 under setting [1] is 14.1 µM [rising, single point]. Regarding `COc1ccccc1NC(=S)NCCC(c1ccccc1)c1ccccc1`, the AC50 runs as follows: under setting [2], 12.6 µM [rising, single point]; under setting [1], 15.8 µM [rising, partial curve]. With `CC(C)(C)C(=O)Nc1ccc(C(=O)N/N=C/c2ccccc2OC(=O)c2ccccc2)cc1`, the AC50 under setting [2] is 14.1 µM [falling, single point]. As for `S=c1[nH]nc(-c2ccncc2)n1/N=C/C=C/c1ccco1`, the AC50 reads like this: under setting [2], 0.447 µM [falling, full curve, poor fit]; under setting [1], 1.41 µM [falling, full curve, poor fit]. On to `COc1ccccc1N1CCN(C(=O)CSc2nnc(NC(=O)C(C)C)s2)CC1`, for which the half-maximal activity concentration (AC50) under setting [1] was 0.0112 µM [falling, full curve, poor fit]. In the case of `COc1ccccc1C(=O)C1CCCN(C(=O)c2cc(C(C)C)no2)C1` (configuration not stated), the AC50 is 7.94 µM [falling, partial curve, poor fit] under setting [2] and 0.00501 µM [falling, full curve, poor fit] under setting [1].

For `Cc1ccc2cc(CN(CCN(C)C)C(=S)Nc3ccccc3)c(=O)[nH]c2c1C`, under setting [2], the AC50 is 14.1 µM [falling, single point]. On to `CCCCCOC(=O)c1[nH]c2c(c1C)C(=O)CC(c1ccco1)C2` (configuration not stated), for which the AC50 is, setting by setting: under setting [2], 22.4 µM [falling, single point]; under setting [1], 0.112 µM [rising, full curve].

Regarding `CC1=CC(=O)c2ccccc2C1=O`, the AC50 is, setting by setting: under setting [2], 11.2 µM [falling, single point] and 1 µM [falling, full curve] and 15.8 µM [falling, single point]; under setting [1], 11.2 µM [falling, single point] and 35.5 µM [falling, single point]. As for `CCC(C)c1ccc(NC(=S)NCc2cccnc2)cc1` (configuration not stated), the AC50 under setting [1] is 14.1 µM [rising, single point].

As to `CSc1ccc(-c2nc3cnccn3c2Nc2ccc3c(c2)OCO3)cc1`, the AC50 is 35.5 µM [rising, single point] under setting [2] and 17.8 µM [rising, single point] under setting [1]. For the molecule `CCCOc1ccc(Cc2c(Cl)nc(SC)nc2NC)cc1`, under setting [1], the AC50 is 3.98 µM [rising, partial curve, poor fit]. For the molecule `O=S(=O)(Nc1ccc(-c2ccc(N3CCCC3)nn2)cc1)c1ccc(OC(F)(F)F)cc1`, the AC50 under setting [2] is 0.0398 µM [falling, full curve, poor fit].

With `Cc1ccccc1C(=O)Nc1sc2c(c1C(=O)O)CCC2`, the AC50 under setting [2] was 2.51 µM [falling, single point]. As for `CCCCn1c(-c2ccccc2)cnc1SCC(=O)NCCc1ccc(OC)c(OC)c1`, under setting [1], the AC50 was 17.8 µM [rising, single point]. Regarding `CC12CCC(C(=O)N3CCN(C(c4ccccc4)c4ccccc4)CC3)(OC1=O)C2(C)C` (configuration not stated), the concentration at half-maximal activity (AC50) under setting [1] is 22.4 µM [rising, single point]. For the molecule `O=C(CC12CC3CC(CC(C3)C1)C2)NCO`, the AC50 under setting [2] was 0.00562 µM [rising, full curve, poor fit]. On to `COc1cccc(CN2CCN(CCc3ccccc3)C(CCO)C2)c1OC` (configuration not stated), for which the AC50 is 4.47 µM [falling, full curve, poor fit] under setting [2] and 4.47 µM [falling, full curve, poor fit] under setting [1].

For `O=C1/C(=C/c2ccc(N3CCOCC3)o2)SC(=Nc2ccccc2)N1CCc1c[nH]c2ccccc12`, the AC50 is 7.08 µM [falling, full curve] under setting [2] and 3.98 µM [falling, full curve] under setting [1]. Turning to `Cc1csc2nc(CCNS(=O)(=O)c3ccc(F)cc3)cn12`, the AC50 under setting [1] is 0.158 µM [rising, full curve, poor fit]. On to `CCOC(=O)Cn1nc(C)c(NC(=O)COc2ccc(F)cc2F)c1C`, for which the AC50 was 0.0316 µM [falling, full curve, poor fit] under setting [2] and 0.0316 µM [falling, full curve] under setting [1]. As for `O=C1CC(c2cccc(Cl)c2)c2cc3c(cc2N1)CCC3` (configuration not stated), under setting [1], the AC50 was 8.91 µM [falling, partial curve, poor fit].

Regarding `Cc1ccc(-c2cc(C(F)F)nc(S(C)(=O)=O)n2)cc1`, the concentration at half-maximal activity (AC50) reads like this: under setting [2], 10 µM [falling, partial curve, poor fit]; under setting [1], 35.5 µM [falling, partial curve, poor fit].

With `CCCCCCCC(=O)N/N=C(\C)c1ccc(O)cc1O`, the AC50 is 31.6 µM [rising, single point] under setting [2] and 35.5 µM [rising, single point] under setting [1].

As usually defined, the AC50 is the concentration giving half of the maximal activity seen.
